Source: PubChem BioAssay AID817 (Emory University Molecular Libraries Screening Center, 2007)
The list shows a part of the results.

Assay: restorers of sdo1-deficient yeast growth – S. cerevisiae, bone marrow failure model, primary screen (AID 817);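 also: z-score against mean and SD of all compound wells on the same plate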
Conditions: S. cerevisiae sdo1-depleted JHY4D growth rescue, OD600; measured here: growth rescue at 24 h; at 10 µM; stronger effect = higher value; pdr5 snq2 efflux-pump mutant strain

Row | Compound | z-score
1 | CCc1nc2c(n1)c1c(non1O)c1c2no[n+]1[O-] | -1.03
2 | CP(=O)(Oc1ccccc1)N1CCOC1=O (configuration not stated) | 0.83
3 | O=[N+]([O-])c1cccc2n[nH]nc12 | -0.71
4 | CC(=O)N1C2C3N(C(C)=O)C1C1N(C(C)=O)C(C(N1C(C)=O)N3C(C)=O)N2C(C)=O | 0.93
5 | COc1ccc(OP(C)(=O)Nc2ccc(Br)cc2)cc1 (configuration not stated) | 0.61
6 | CCN(CC)CC(O)COC(=O)C(O)(c1ccccc1)C1CCCCC1 (configuration not stated) | 2.04
7 | CC1CCN(C(=O)Oc2c(Cl)cc(Cl)c3cccnc23)CC1 | -0.91
8 | CN(C)C(=O)OCCc1n(C)cc[n+]1C | -0.01
9 | CP(=O)(Nc1ccc(Cl)cc1)Oc1ccc(F)cc1 (configuration not stated) | 0.6
10 | CC(C)(C)c1ccc(OP(C)(=O)O)cc1 | 1.08
11 | CP(=O)(OC12CC3CC(CC(C3)C1)C2)OC12CC3CC(CC(C3)C1)C2 | -0.04
12 | CCOC(=O)c1ccc(NP(C)(=O)Oc2ccc(Cl)cc2)cc1 (configuration not stated) | -2.39
13 | COc1ccc(OP(C)(=O)Nc2ccccc2Br)cc1 (configuration not stated) | -0.52
14 | COc1ccccc1OP(C)(=O)Nc1ccc(C)c(C)c1 (configuration not stated) | 0.14
15 | CCOP(=O)(Nc1ccccc1)OCC | 0.25
16 | Cc1cc(SC(NC(=O)c2ccc(F)cc2)C(Cl)(Cl)Cl)ncn1 (configuration not stated) | 0.02
17 | CCN(N=Nc1nonc1N)c1nonc1N | -0.09
18 | Cc1nc2ccc3ccccc3c2o1.O=[N+]([O-])c1cc([N+](=O)[O-])c(O)c([N+](=O)[O-])c1 | -0.3
19 | CN(C)CCOC(=O)C(O)(c1ccccc1)C1CCCC1 (configuration not stated) | 0.6
20 | CN1CCCC(OC(=O)C(c2ccccc2)c2ccccc2)C1 (configuration not stated) | 1.14
21 | COc1ccc(OP(C)(=O)Nc2ccccn2)cc1 (configuration not stated) | -0.1
22 | CCc1ccc(OP(C)(=O)O)cc1 | -0.04
23 | COc1ccccc1OP(C)(=O)Nc1ccc(C)cc1C (configuration not stated) | 0.28
24 | CP(=O)(Nc1ccccn1)Oc1ccccc1 (configuration not stated) | 1.7
25 | Cc1c2non([O-])c-2c(C)[n+](=O)[n+]1[O-] | -0.12
26 | O=C(NC(Sc1ccncn1)C(Cl)(Cl)Cl)c1ccccc1 (configuration not stated) | 1.34

Row | Compound | z-score
27 | Oc1ccccc1CNc1ccccn1 | 0.56
28 | CC(C)CC(=O)NC(Sc1ccc(Cl)cc1)C(Cl)(Cl)Cl (configuration not stated) | 0.82
29 | Cc1c(NP(C)(=O)Oc2ccc(C(C)C)cc2)c(=O)n(-c2ccccc2)n1C (configuration not stated) | -0.09
30 | CC(C)c1ccc(OP(C)(=O)Nc2ccc(SC(F)(F)F)cc2)cc1 (configuration not stated) | -0.07
31 | CP(=O)(Nc1ccccc1F)Oc1ccccc1 (configuration not stated) | 1.48
32 | O=P1(Nc2nc3ccc(Cl)cc3s2)COc2ccccc2O1 (configuration not stated) | 0.73
33 | O=C(OCCN1CCN(CCOCc2ccccc2)CC1)C(O)(c1ccccc1)c1ccccc1 | 0.23
34 | CCOC(=O)c1ccc(NP(C)(=O)Oc2ccc(F)cc2)cc1 (configuration not stated) | -0.34
35 | CCOC(=O)NC(Sc1ccccc1)C(Cl)(Cl)Cl (configuration not stated) | -0.06
36 | CP(=O)(Nc1ccccc1)Oc1ccc(F)cc1 (configuration not stated) | -0.65
37 | CCN(CC)CCCOC(=O)C(O)(c1ccccc1)C1CCCCC1 (configuration not stated) | -0.11
38 | CCC(=O)N1C2C3N(C(=O)CC)C1C1N(C(=O)CC)C(C(N1C(=O)CC)N3C(=O)CC)N2C(=O)CC | -2.05
39 | CC(=O)NC(SC(=S)N(CC(C)C)CC(C)C)C(Cl)(Cl)Cl (configuration not stated) | 0.37
40 | COC(=O)c1cc2c(s1)N=C(c1ccccc1)N(C)P2(=O)N1CCOCC1 (configuration not stated) | -0.35
41 | CN(C)CCOC(=O)C(O)(c1ccccc1)C1CCCCC1 (configuration not stated) | 0.44
42 | COc1ccc(OP(C)(=O)Nc2cccc(Br)c2)cc1 (configuration not stated) | -0.56
43 | O=C(OC1CN2CCC1CC2)c1cccc(Cl)c1 (configuration not stated) | -0.32
44 | C(Cc1nn[nH]n1)Cc1nn[nH]n1 | -0.41
45 | CC(=O)NC(SC(=S)N(C)C)C(Cl)(Cl)Cl (configuration not stated) | -1
46 | c1nnnn1CCn1cnnn1 | -0.5
47 | CCOP(C)(=S)SCC(=O)NC(C)(CC)C(=O)O (configuration not stated) | 0.58
48 | CC(C)C(=O)NC(Sc1ccccc1)C(Cl)(Cl)Cl (configuration not stated) | -0.62
49 | O=P(Nc1nccs1)(c1ccccc1)c1ccccc1 | -0.02
50 | Cc1ccccc1NP(C)(=O)Nc1ccccc1C | -0.27
51 | CP(=O)(Nc1ccc2c(c1)OCCO2)Oc1ccccc1 (configuration not stated) | -0.78
52 | Clc1n[nH]nc1-c1nn[nH][15n]1 | -0.96

Row | Compound | z-score
53 | O=P1(Nc2ccccn2)COc2ccccc2OC1 | 1.63
54 | Cc1nc2ccc3ccccc3c2s1.O=[N+]([O-])c1cc([N+](=O)[O-])c(O)c([N+](=O)[O-])c1 | -1.4
55 | Cc1nn(-c2ccccc2)c2c1P(=O)(N1CCOCC1)N(C)C(c1ccccc1)=N2 (configuration not stated) | 0.04
56 | COc1cc(C2NCCC3(OCCO3)C2(C)C)cc(OC)c1OC.O=[N+]([O-])c1cc([N+](=O)[O-])c(O)c([N+](=O)[O-])c1 (configuration not stated) | 1.01
57 | CP(=O)(Nc1ccc(SC(F)(F)F)cc1)Oc1ccccc1 (configuration not stated) | -0.65
58 | O=P1(Nc2ccc(Br)cn2)COc2ccccc2OC1 | -0.88
59 | Cc1ccc(OCC(=O)OC2CN3CCC2CC3)cc1 (configuration not stated) | -0.42
60 | O=P1(Nc2ncccn2)COc2ccccc2OC1 | 0.11
61 | COc1ccccc1OP(C)(=O)Nc1c(C)cccc1C (configuration not stated) | 0.63
62 | CN1CCCCC1COC(=O)C1(O)c2ccccc2CCc2ccccc21 (configuration not stated) | 0.22
63 | O=P(Nc1nccs1)(c1ccccc1)c1nc2ccccc2s1 (configuration not stated) | -1.17
64 | CCOP1(=S)c2c(C)nn(CCC#N)c2N=C(c2ccccc2F)N1C (configuration not stated) | 0.35
65 | CCOP1(=S)c2c(C)nn(CCC#N)c2N=C(c2ccc(F)cc2)N1C (configuration not stated) | 0.71
66 | CC1=NCCc2c1[nH]c1ccccc21.O=[N+]([O-])c1cc([N+](=O)[O-])c(O)c([N+](=O)[O-])c1 | 0.54
67 | O=[N+]([O-])c1ccc2c(c1)nnn2O | 0.94
68 | Cc1cc(C)cc(OP(C)(=O)Nc2ccc(C)cc2C)c1 (configuration not stated) | -0.4
69 | Cc1cccc(OCC(=O)OC2CN3CCC2CC3)c1 (configuration not stated) | -0.72
70 | CCOC(=O)c1ccc(NP(C)(=O)Oc2cc(C)cc(C)c2)cc1 (configuration not stated) | 0.22
71 | CCOP(=O)(Nc1cccc2ccccc12)OCC | -0.45
72 | Cc1ccc(NCCc2c([N+](=O)[O-])cc([N+](=O)[O-])cc2[N+](=O)[O-])cc1 | -0.32
73 | Cc1cc(C)cc(OP(C)(=O)Nc2ccccn2)c1 (configuration not stated) | -0.47
74 | Cc1ccc(C)c(NP(C)(=O)Oc2ccccc2)c1 (configuration not stated) | -0.67
75 | Cc1c2c(nc3ccccc13)SC(C(Cl)Cl)C2 (configuration not stated) | -1.49
76 | O=C(OC1CN2CCC1CC2)C12CC3CC(CC(C3)C1)C2 (configuration not stated) | -1.44
77 | CC(C)(C)c1ccc(OP(C)(=O)Nc2ccc(SC(F)(F)F)cc2)cc1 (configuration not stated) | -0.68
